Eleven substances from patent US7939495B2 (Caregen Co., Ltd, priority 2005, dated 2011) can be followed below.

*: point of attachment. Fmoc = O=C(OCC1c2ccccc2-c2ccccc21)*; Palmitoyl = CCCCCCCCCCCCCCCC(=O)*; For = O=C*

The nature of data set [1]: general procedure: Fmoc solid-phase peptide synthesis; Fmoc-Rink amide resin (Nova Biochem 01-64-0013); chloro trityl chloride resin (Nova Biochem 01-64-0021); Bop/HoBt/DIEA. The following applies: whole synthesis; for crude yield / final HPLC purity / isolated yield: scale of the general procedure 1 mmole; for final HPLC purity: high performance liquid chromatography.
A short description of data set [2]: general procedure: Fmoc solid-phase peptide synthesis; Rink amide resin; Bop/HoBt/DIEA. The following applies: whole synthesis; for crude yield: scale of the general procedure 1 mmole.
A short description of data set [3]: general procedure: Fmoc solid-phase peptide synthesis; CTL resin; Bop/HoBt/DIEA. The following applies: whole synthesis; for crude yield: scale of the general procedure 1 mmole.

Regarding For-YRSRKYTSWY-OH, in data set [1], the crude mass worked out at 1.28 g and the crude yield came to 86.6%.
In the case of For-YRSRKYTSWY-NH2, in data set [1], the crude mass worked out at 1.03 g and the crude yield came to 69.7%.
In data set [1], Stearyl-YRSRKYTSWY-OH displayed a crude mass of 1.35 g and a crude yield of 77.9%.
As to Ac-YRSRKYTSWY-NH2, in data set [1], the “final HPLC purity” value was 92% and the isolated yield is listed as 48%. Besides, in data set [2], the crude mass is listed as 0.93 g and the crude yield was found to be 62.3%.
In data set [2], Fmoc-YRSRKYTSWY-NH2 had a crude mass of 1.18 g and a crude yield of 70.6%.
Regarding Ac-YRSRKYTSWY-OH, in data set [3], the crude mass worked out at 0.98 g and the crude yield was found to be 65.7%. In data set [1], the isolated mass is 0.72 g, the “final HPLC purity” value was determined as 96% and the isolated yield worked out at 70.9%.
With Stearyl-YRSRKYTSWY-NH2, in data set [1], the crude mass is 1.34 g and the crude yield stood at 77.4%.
For Myristyl-YRSRKYTSWY-OH, in data set [1], the crude mass came out at 1.52 g and the crude yield worked out at 90.6%.
On to Fmoc-YRSRKYTSWY-OH, for which, in data set [3], the crude mass is reported as 1.3 g and the crude yield turned out to be 77.7%.
In the case of Myristyl-YRSRKYTSWY-NH2, in data set [1], the crude mass was found to be 1.26 g and the crude yield turned out to be 75.2%.
In data set [1], Palmitoyl-YRSRKYTSWY-OH registered a crude mass of 1.33 g and a crude yield of 73.4%.
